Data reported in US10065942B2, “Crystalline (2S)-3-[(3S,4S)-3-[(1R)-1-hydroxyethyl]-4-(4-methoxy-3-{[1-(5-methylpyridin-2-yl)azetidin-3-yl]oxy}phenyl)-3-methylpyrrolidin-1-yl]-3-oxopropane-1,2-diol” (Eli Lilly and Company, priority 2014, dated 2018).
For at least one compound, name, drawing or mass did not settle the structure.

System: chronic cyclophosphamide (CYP)-induced overactive bladder mouse model
Experiment: Overactive Bladder In Vivo Model (chronic cyclophosphamide-induced OAB)
Conditions: tadalafil at fixed dose of 10 mg/kg
Protocol: The in vivo effect of PDE4 inhibitors on OAB is studied with a chronic cyclophosphamide (CYP)-induced overactive bladder mouse model adapted from Boudes et al., Neurourol. Urodynam. 2011. In a typical study, female C57/Bl6 mice, approximately 20 grams in body weight (Harlan Laboratories, Inc., Indianapolis, Ind.) are used. Mice are randomized by body weight into groups one day before the start of the study. Mice are individually housed and maintained on a 12 hour light/dark cycle at 22° C. with ad lib access to food (TD 2014 with 0.72% Ca and 0.61% P, 990 IU/g D3, Teklad™, Madison, Wis.) and water. Animals receive cyclophosphamide (dissolved in physiological saline) i.p. administration at 100 mg/kg on days 1, 3, 5, and 7 to chronically induce OAB. The vehicle control group received daily vehicle (HEC 1%/Tween 80 0.25%/Antifoam 0.05%) administered orally. All other groups are administered orally tadalafil at 10 mg/kg in combination with 0.1, 1.0, or 10.0 mg/kg of test compound daily at a volume of 200 μl/mouse. On day 8, mice are housed in urine collection chambers with a filter paper placed underneath chamber. Prior to urine collection, gavages of 1 ml water are given to each mouse. Urine is collected from 6 pm to 10 pm (i.e. for 4 hrs). […] Voiding frequency and volume/void are calculated using Image J software (NIH). Data are statistically analyzed with JMP8® software (Cary, N. C.). […]

CN1CC(=O)N2[C@H](c3ccc4c(c3)OCO4)c3[nH]c4ccccc4c3C[C@@H]2C1=O [tadalafil, reference compound]
activity on urinary frequency: no significant activity
activity on volume per void: no significant activity
